Experimental data as given in US20200339702A1 (ULTRAHUMAN THIRTEEN, published 2020).
These are yes or no findings as the source states them, for the method shown. Some entries that bind do so weakly or less than the wild type.

Chains of the proteins cited; added tags and fusions are not shown. Lines headed by an entry give the natural chain unless they say otherwise; changes in a name come on top.
UniProt P21860: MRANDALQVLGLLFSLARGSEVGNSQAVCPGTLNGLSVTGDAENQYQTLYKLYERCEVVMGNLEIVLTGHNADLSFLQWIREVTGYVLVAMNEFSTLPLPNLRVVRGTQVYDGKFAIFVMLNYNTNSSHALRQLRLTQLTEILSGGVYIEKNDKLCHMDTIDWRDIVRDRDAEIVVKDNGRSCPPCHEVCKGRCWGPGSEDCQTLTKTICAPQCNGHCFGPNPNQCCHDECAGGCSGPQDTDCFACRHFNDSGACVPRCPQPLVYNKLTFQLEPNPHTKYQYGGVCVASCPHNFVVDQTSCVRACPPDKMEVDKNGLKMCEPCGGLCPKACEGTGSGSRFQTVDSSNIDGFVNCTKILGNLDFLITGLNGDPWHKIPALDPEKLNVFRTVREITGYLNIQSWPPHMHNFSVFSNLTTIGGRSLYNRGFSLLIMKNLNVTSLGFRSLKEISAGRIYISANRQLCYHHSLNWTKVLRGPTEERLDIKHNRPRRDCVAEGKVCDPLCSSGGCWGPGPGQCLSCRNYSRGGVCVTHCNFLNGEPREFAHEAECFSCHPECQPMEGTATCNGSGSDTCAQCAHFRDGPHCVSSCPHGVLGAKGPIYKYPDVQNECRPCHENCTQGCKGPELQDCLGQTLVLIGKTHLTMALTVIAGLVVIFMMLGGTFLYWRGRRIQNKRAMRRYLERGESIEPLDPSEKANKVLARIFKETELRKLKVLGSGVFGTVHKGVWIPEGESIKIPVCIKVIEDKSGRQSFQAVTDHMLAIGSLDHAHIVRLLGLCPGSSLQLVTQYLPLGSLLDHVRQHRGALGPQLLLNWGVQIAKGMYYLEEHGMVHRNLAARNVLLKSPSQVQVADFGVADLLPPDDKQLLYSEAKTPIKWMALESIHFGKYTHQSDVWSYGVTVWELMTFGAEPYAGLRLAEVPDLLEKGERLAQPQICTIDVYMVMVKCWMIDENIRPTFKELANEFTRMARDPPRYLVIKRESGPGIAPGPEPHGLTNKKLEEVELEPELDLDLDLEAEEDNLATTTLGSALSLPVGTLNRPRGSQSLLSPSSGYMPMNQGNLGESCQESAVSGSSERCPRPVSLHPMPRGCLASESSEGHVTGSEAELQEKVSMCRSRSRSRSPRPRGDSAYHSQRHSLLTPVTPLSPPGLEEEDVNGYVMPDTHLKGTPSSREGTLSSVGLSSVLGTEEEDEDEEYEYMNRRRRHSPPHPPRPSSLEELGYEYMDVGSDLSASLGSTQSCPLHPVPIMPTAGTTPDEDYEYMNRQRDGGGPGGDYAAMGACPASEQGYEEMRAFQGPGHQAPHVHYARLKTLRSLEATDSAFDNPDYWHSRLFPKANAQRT

What was measured:
[1] = molecular target: human ERBB3 human Fc tagged recombinant protein (human) (UniProt P21860); experiment: direct titration ELISA on human ERBB3-Fc
[2] = molecular target: rhesus monkey ERBB3 human Fc tagged recombinant protein (rhesus monkey (Macaca mulatta)); experiment: direct titration ELISA on rhesus ERBB3-Fc
[3] = molecular target: human ERBB3 on transiently transfected HEK-293 cells (human) (UniProt P21860); experiment: flow cytometry, human ERBB3-transfected HEK-293
[4] = molecular target: rhesus ERBB3 on transiently transfected HEK-293 cells (rhesus monkey (Macaca mulatta)); experiment: flow cytometry, rhesus ERBB3-transfected HEK-293
[5] = molecular target: human ERBB3 human Fc tagged recombinant protein (human) (UniProt P21860); experiment: direct binding ELISA on coated human ERBB3-Fc, IgG1null titrated
[6] = molecular target: rhesus monkey ERBB3 human Fc tagged recombinant protein (rhesus monkey (Macaca mulatta)); experiment: direct binding ELISA on coated rhesus ERBB3-Fc, IgG1null titrated
[7] = molecular target: human ERBB3 on transiently transfected HEK-293 cells (human) (UniProt P21860); experiment: flow cytometry, human ERBB3-transfected HEK-293 cells, IgG1null titrated
[8] = molecular target: rhesus ERBB3 on transiently transfected HEK-293 cells (rhesus monkey (Macaca mulatta)); experiment: flow cytometry, rhesus ERBB3-transfected HEK-293 cells, IgG1null titrated
[9] = molecular target: T1, human ERBB3 His tagged, monomeric (human, UniProt P21860 20-643, biotinylated in the Alphascreen assays (sites not given)); experiment: Alphascreen competition in solution, competitor h24C05 IgG1null, biotinylated human ERBB3-His
T1 construct: Used unbiotinylated as Biacore analyte and biotinylated in Alphascreen; treated as one molecule; also called human ERBB3-His (Acrobiosystems); biotinylated monomeric human ERBB3
Method: The AlphaScreen assay (Perkin Elmer) was performed in a 25 μl final volume in 384-well white microtiter plates (Greiner). The reaction buffer contained 1×PBS pH 7.3 (Oxoid, Cat. nr. BR0014G) and 0.05% (v/v) Tween® 20 (Sigma, Cat. nr. P9416). Purified IgG samples were titrated in three fold serial dilutions starting at 100 nM final concentration and incubated with biotinylated human ERBB3-His (Acrobiosystems) at 1 nM final concentration for 20 minutes at room temperature. The parental IgG and the anti-human IgG1 Acceptor beads at were added and the mix was incubated for 1 hour at room temperature. Followed by addition of the Streptavidin Donor beads and incubation for 30 minutes at room temperature. The emission of light was measured in the EnVision multilabel plate reader (Perkin Elmer) and analysed using the EnVision manager software. Values were reported as Counts Per Second (CPS) and corrected for crosstalk.

Measured: binding

B1: MH1 IgG1null (antibody, V domains shown)
VH: QVQLVESGGGLVKPGGSLRLSCAASGFTFSDYGMSWIRQAPGKGLEWVSTISDSGSYIYYADSVKGRFTISRDNAKNSLYLQMNSLRAEDTAVYYCARELGDYDGFDYWGQGTLVTVSS
VL: DIQMTQSPSSLSASVGDRVTITCRASQSISSYLSWYQQKPGKAPKLLIYAASSLQSGVPSRFSGSGSGTDFTLTISSLQPEDFATYYCLQYDSTPLTFGGGTKVEIK
notes: Designer (Maximally Humanized) clone; Human IgG1null and human Ckappa
binds: [1] | [2] | [3] | [4] | [5] | [6] | [7] | [8] | [9]

B2: MH3 IgG1null (antibody, V domains shown)
VH: QVQLVESGGGLVKPGGSLRLSCAASGFTFSDYSMSWIRQAPGKGLEWVSTISDSGSTIYYADSVKGRFTISRDNAKNSLYLQMNSLRAEDTAVYYCAREWGDYDGFDFWGQGTLVTVSS
VL: DIQMTQSPSSLSASVGDRVTITCRASQSISSYLSWYQQKPGKAPKLLIYAASSLQSGVPSRFSGSGSGTDFTLTISSLQPEDFATYYCLQYDSTPLTFGGGTKVEIK
notes: as for B1
binds: [1] | [2] | [3] | [4] | [5] | [6] | [7] | [8] | [9]

B3: MH4 IgG1null (antibody, V domains shown)
VH: QVQLVESGGGLVKPGGSLRLSCAASGFTFSDYGMSWIRQAPGKGLEWVSTISDSGSYIYYADSVKGRFTISRDNAKNSLYLQMNSLRAEDTAVYYCAREWGDYDGFDEWGQGTLVTVSS
VL: DIQMTQSPSSLSASVGDRVTITCRASQSISSYLSWYQQKPGKAPKLLIYAASSLQSGVPSRFSGSGSGTDFTLTISSLQPEDFATYYCLQYDSTPLTFGGGTKVEIK
notes: as for B1
binds: [1] | [2] | [3] | [4] | [5] | [6] | [7] | [8] | [9]

B4: MH5 IgG1null (antibody, V domains shown)
VH: QVQLVESGGGLVKPGGSLRLSCAASGFTFSDYGMSWIRQAPGKGLEWVSTISDSGSTIYYADSVKGRFTISRDNAKNSLYLQMNSLRAEDTAVYYCAREYGDYDGFDYWGQGTLVTVSS
VL: DIQMTQSPSSLSASVGDRVTITCRASQSISSYLSWYQQKPGKAPKLLIYAASSLQSGVPSRFSGSGSGTDFTLTISSLQPEDFATYYCLQYDSTPLTFGGGTKVEIK
notes: as for B1
binds: [1] | [2] | [3] | [4] | [5] | [6] | [7] | [8] | [9]

B5: TTP IgG1null (antibody, V domains shown)
VH: QVQLVESGGGLVKPGGSLRLSCAASGFTFSDYGMSWIRQAPGKGLEWVSTISDSGSTIYYADSVKGRFTISRDNAKNSLYLQMNSLRAEDTAVYYCAREYGDYDGFDYWGQGTLVTVSS
VL: DIQMTQSPSSLSASVGDRVTITCRASQSISSYLNWYQQKPGKAPKLLIYAASSLQSGVPSRFSGSGSGTDFTLTISSLQPEDFATYYCLQYDSTPLTFGGGTKVEIK
notes: Designer clone; Human IgG1null and human Ckappa; also called Total Theoretically Possible clone
binds: [1] | [2] | [3] | [4] | [5] | [6] | [7] | [8] | [9]

B6: MH2 IgG1null (antibody, V domains shown)
VH: QVQLVESGGGLVKPGGSLRLSCAASGFTFSDYGMSWIRQAPGKGLEWVSTISDSGSYIYYADSVKGRFTISRDNAKNSLYLQMNSLRAEDTAVYYCAREWGDYDGFDFWGQGTLVTVSS
VL: DIQMTQSPSSLSASVGDRVTITCRASQSISSYLSWYQQKPGKAPKLLIYAASSLQSGVPSRFSGSGSGTDFTLTISSLQPEDFATYYCLQYDSTPLTFGGGTKVEIK
notes: as for B1
binds: [1] | [2] | [3] | [4] | [5] | [6] | [7] | [8] | [9]
